In PMC13270999, “Chronology of tRNA structural dynamics prior to and during interaction with a pseudouridine synthase”:
For at least one entry, the source does not settle the construct or the ends of the probe. Protein sequences can lack the tags named with them.

Target: T1, GST-Pus4 (Saccharomyces cerevisiae) (UniProt P48567)
T1 sequence (looked up, limits assumed): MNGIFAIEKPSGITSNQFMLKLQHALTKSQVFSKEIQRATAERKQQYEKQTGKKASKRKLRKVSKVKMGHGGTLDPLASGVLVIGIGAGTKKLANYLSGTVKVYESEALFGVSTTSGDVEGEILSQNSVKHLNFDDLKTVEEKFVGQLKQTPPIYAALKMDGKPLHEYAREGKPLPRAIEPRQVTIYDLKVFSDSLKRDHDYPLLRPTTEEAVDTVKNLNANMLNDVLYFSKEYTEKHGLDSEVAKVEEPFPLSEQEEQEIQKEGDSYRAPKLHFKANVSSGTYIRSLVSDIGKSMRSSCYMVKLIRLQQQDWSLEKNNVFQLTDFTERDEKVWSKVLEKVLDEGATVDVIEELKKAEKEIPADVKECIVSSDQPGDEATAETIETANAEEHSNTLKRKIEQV
Assay: BLI
Details: BLI: 50 mM Tris-HCl pH 7.5, 100 mM KCl, 0.02% Tween-20, 30 °C, recombinant protein, label: 5' biotin

## GCUUCUAUGGCCAAGUUGGUAAGGCGCCACACUAGUAAUGUGGAGAUCAUCGGUUCAAAUCCGAUUGGAAGCACCA [Ψ55 tRNA Thr(AGU), Cy3/Cy5]
Approximate limit from koff < 0.01 s-1, kon 1.36e5 M-1s-1, pseudouridine at position 55 (second U of CGGUUCAAA), Cy3 at U4 C5, Cy5 at U41 C5
  Kd: < 0.13 µM

## GCUUCAGUAGCUCAGUAGGAAGAGCGUCAGUCUCAUAAUCUGAAGGUCGAGAGUUCGAACCUCCCCUGGAGCACCA [U55 tRNA eMet(CAU), no fluorophores]
Approximate limit from koff < 0.01 s-1, kon 5.84e4 M-1s-1
  Kd: < 0.13 µM

## GCUUCAGUAGCUCAGUAGGAAGAGCGUCAGUCUCAUAAUCUGAAGGUCGAGAGUUCGAACCUCCCCUGGAGCACCA [U55 tRNA eMet(CAU), Cy3/Cy5]
Approximate limit from koff < 0.01 s-1, kon 1.00e5 M-1s-1 (bi-exponential fit), Cy3 at U4 C5, Cy5 at U41 C5
  Kd: < 0.13 µM

## GCUUCAGUAGCUCAGUAGGAAGAGCGUCAGUCUCAUAAUCUGAAGGUCGAGAGUUCGAACCUCCCCUGGAGCACCA [Ψ55 tRNA eMet(CAU), Cy3/Cy5]
Approximate limit from koff < 0.01 s-1, kon 1.12e5 M-1s-1, pseudouridine at position 55 (second U of GAGAGUUCGAA), Cy3 at U4 C5, Cy5 at U41 C5
  Kd: < 0.13 µM

## GCUUCAGUAGCUCAGUAGGAAGAGCGUCAGUCUCAUAAUCUGAAGGUCGAGAGUUCGAACCUCCCCUGGAGCACCA [Ψ55 tRNA eMet(CAU), no fluorophores]
Approximate limit from koff < 0.01 s-1, pseudouridine at position 55 (second U of GAGAGUUCGAA)
  Kd: < 0.13 µM

## GCUUCUAUGGCCAAGUUGGUAAGGCGCCACACUAGUAAUGUGGAGAUCAUCGGUUCAAAUCCGAUUGGAAGCACCA [U55 tRNA Thr(AGU), Cy3/Cy5]
Approximate limit from koff < 0.01 s-1, kon 1.36e5 M-1s-1 (bi-exponential fit), Cy3 at U4 C5, Cy5 at U41 C5
  Kd: < 0.13 µM
